Taken from: PubChem BioAssay AID1159578 (Peter MacCallum Cancer Centre, 2015)
In all, the deposit lists about 18,000 reagents; this is an unselected part. Of all reagents, about 1,030 (5.7%) got an active call. 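Inactive calls also include pools with fewer than 3300 nuclei, whose migration was not assessed.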 Raw values vary from plate to plate and are shown uncorrected. Unmarked entries are inactive.

- Assay: 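Genome-wide hunt for genes controlling movement of lymphatic endothelial cells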 (primary screen)
- Cell system: human lymphatic endothelial cells
- Reagent: siRNA pool against human genes, 40 nM
- Time to read-out: 48 h after transfection
- Detection: 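High-content imaging of dye-stained cells in a scratch assay measures filled wound area and nuclei per well; duplicate means given as ratio to mock and robust z-score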
- Direction: migration robust z-score: higher = faster migration into the scratch; migration relative to mock: higher = more scratch area covered than mock; nuclei per well: higher = more cells in the well
- Call rule: 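Pools averaging fewer than 3300 nuclei are never called; remaining pools count as changed when migration robust z lies outside -2 to 2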
- Meaning of the calls: active = migration changed; inactive = no migration change, or too few cells

The first 2 records, ahead of the listing:
no.	gene symbol	migration robust z-score	migration class with cell-count check	migration relative to mock	nuclei per well, duplicate mean
1	LHCGR (luteinizing hormone/choriogonadotropin receptor)	0.31	migration z between -2 and 2; enough cells	0.86	6280
2	NME4 (NME/NM23 nucleoside diphosphate kinase 4)	-1.04	migration z between -2 and 2; enough cells	0.6	5276

Results, from the start:
no.	gene symbol	migration robust z-score	migration class with cell-count check	migration relative to mock	nuclei per well, duplicate mean
1	LHCGR (luteinizing hormone/choriogonadotropin receptor)	0.31	migration z between -2 and 2; enough cells	0.86	6280
2	NME4 (NME/NM23 nucleoside diphosphate kinase 4)	-1.04	migration z between -2 and 2; enough cells	0.6	5276
3	CYB5R5 (cytochrome b5 reductase 5 (putative))	-1.44	migration z between -2 and 2; enough cells	0.51	4600
4	RNF13 (ring finger protein 13)	-0.98	migration z between -2 and 2; enough cells	0.62	5332
5	SHLD2 (shieldin complex subunit 2)	0.46	migration z between -2 and 2; enough cells	1	5640
6	FAM241A (family with sequence similarity 241 member A)	1.71	migration z between -2 and 2; enough cells	1.33	5436
7	LHB (luteinizing hormone subunit beta)	-0.45	migration z between -2 and 2; enough cells	0.77	6274
8	SSH3 (slingshot protein phosphatase 3)	0.34	migration z between -2 and 2; enough cells	0.87	5380
9	ZNF618 (zinc finger protein 618)	-0.67	under 3300 nuclei; migration not judged	0.72	3248
10	GCOM1 (GCOM1, MYZAP-POLR2M combined locus)	-0.43	migration z between -2 and 2; enough cells	0.77	4634
11	TCP10L (t-complex 10 like)	0.52	migration z between -2 and 2; enough cells	1.02	6194
12	BPNT1 (3'(2'), 5'-bisphosphate nucleotidase 1)	1.17	migration z between -2 and 2; enough cells	1.03	5262
13	ZFHX2 (zinc finger homeobox 2)	0.41	migration z between -2 and 2; enough cells	0.99	5328
14	PRELID1 (PRELI domain containing 1)	0.84	migration z between -2 and 2; enough cells	1.1	5185
15	CCR3 (C-C motif chemokine receptor 3)	-0.65	migration z between -2 and 2; enough cells	0.68	6104
16	TARS1 (threonyl-tRNA synthetase 1)	-0.98	migration z between -2 and 2; enough cells	0.62	5942
17	RSPO4 (R-spondin 4)	-0.54	migration z between -2 and 2; enough cells	0.74	5500
18	GHR (growth hormone receptor)	-0.46	migration z between -2 and 2; enough cells	0.72	5892
19	CAMK1 (calcium/calmodulin dependent protein kinase I)	-2.39 (active)	migration z below -2; enough cells	0.34	4106
20	TOP3A (DNA topoisomerase III alpha)	1.5	migration z between -2 and 2; enough cells	1.1	5224
21	CEP162 (centrosomal protein 162)	1.63	migration z between -2 and 2; enough cells	1.3	5085
22	OR8J1 (olfactory receptor family 8 subfamily J member 1)	0.94	migration z between -2 and 2; enough cells	1.14	5124
23	SYT8 (synaptotagmin 8)	1.03	migration z between -2 and 2; enough cells	1.15	5492
